{"source": "PubChem BioAssay AID504784 – Drosophila RNAi Screening Center, 2011", "aim": "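Search for regulators of lipid droplet storage in oleate-fed fly cells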 (primary screen)", "system": "Drosophila Kc167 embryonic cells", "knock-down reagent": "long dsRNA against Drosophila genes, about 250 ng dsRNA per well", "duration": "4 days", "challenge": "cells fed 400 µM oleic acid bound to BSA", "read-out": "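Microscope images give a droplet-to-nucleus area ratio, taken as log and converted to a screen-wide B-score; higher values mean greater lipid storage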", "scale": "droplet/nuclear area B-score: higher = more stored lipid (overstorage)", "note": "The screen tested about 17,000 reagents; shown is an unselected part of those that have a named target and a result. 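Each column is one replicate's B-score; the combined score over replicates was not deposited, so single values may mislead.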"}
{"gene": "Rich", "amplicon": "DRSC11607", "droplet/nuclear area B-score, replicate 1": 0.0121, "droplet/nuclear area B-score, replicate 2": -0.299, "droplet/nuclear area B-score, replicate 3": 0.333}
{"gene": "CG7924", "amplicon": "DRSC10931", "droplet/nuclear area B-score, replicate 1": 1.69, "droplet/nuclear area B-score, replicate 2": 3.49, "droplet/nuclear area B-score, replicate 3": 0.447}
{"gene": "CG8043", "amplicon": "DRSC16368", "droplet/nuclear area B-score, replicate 1": 3.65, "droplet/nuclear area B-score, replicate 2": 4.37}
{"gene": "CG3942", "amplicon": "DRSC15525", "droplet/nuclear area B-score, replicate 1": -1.13, "droplet/nuclear area B-score, replicate 2": -0.0654}
{"gene": "CG32809", "amplicon": "DRSC18507", "droplet/nuclear area B-score, replicate 1": 7.69, "droplet/nuclear area B-score, replicate 2": 5.19, "droplet/nuclear area B-score, replicate 3": -1.61}
{"gene": "CG32809", "amplicon": "DRSC18562", "droplet/nuclear area B-score, replicate 1": -0.126, "droplet/nuclear area B-score, replicate 2": 1.22}
{"gene": "CG32809", "amplicon": "DRSC18592", "droplet/nuclear area B-score, replicate 1": -2.15, "droplet/nuclear area B-score, replicate 2": 0.674}
{"gene": "atms", "amplicon": "DRSC12310", "droplet/nuclear area B-score, replicate 1": -2.78, "droplet/nuclear area B-score, replicate 2": -2.3, "droplet/nuclear area B-score, replicate 3": -0.0125}
{"gene": "Ir48b", "amplicon": "DRSC06320", "droplet/nuclear area B-score, replicate 1": -0.537, "droplet/nuclear area B-score, replicate 2": 0.15}
{"gene": "MFS10", "amplicon": "DRSC19888", "droplet/nuclear area B-score, replicate 1": 0.107, "droplet/nuclear area B-score, replicate 2": 0.149, "droplet/nuclear area B-score, replicate 3": 0.124}
{"gene": "Kdm3", "amplicon": "DRSC16393", "droplet/nuclear area B-score, replicate 1": -0.0856, "droplet/nuclear area B-score, replicate 2": -0.648}
{"gene": "a", "amplicon": "DRSC04667", "droplet/nuclear area B-score, replicate 1": 10.9, "droplet/nuclear area B-score, replicate 2": 2.6}
{"gene": "a", "amplicon": "DRSC04668", "droplet/nuclear area B-score, replicate 1": 0.86, "droplet/nuclear area B-score, replicate 2": -1.53}
{"gene": "Pka-C2", "amplicon": "DRSC16790", "droplet/nuclear area B-score, replicate 1": 1.28, "droplet/nuclear area B-score, replicate 2": -2.01}
{"gene": "Pka-C2", "amplicon": "DRSC23310", "droplet/nuclear area B-score, replicate 2": 0.545}
{"gene": "inc", "amplicon": "DRSC17954", "droplet/nuclear area B-score, replicate 1": 0.847, "droplet/nuclear area B-score, replicate 2": 1.19}
{"gene": "inc", "amplicon": "DRSC18512", "droplet/nuclear area B-score, replicate 1": 0.669, "droplet/nuclear area B-score, replicate 2": -0.688, "droplet/nuclear area B-score, replicate 3": -1.74}
{"gene": "GstD7", "amplicon": "DRSC16688", "droplet/nuclear area B-score, replicate 1": -0.525, "droplet/nuclear area B-score, replicate 2": -0.919, "droplet/nuclear area B-score, replicate 3": 0.652}
{"gene": "CG14947", "amplicon": "DRSC02429", "droplet/nuclear area B-score, replicate 1": -0.957, "droplet/nuclear area B-score, replicate 2": 1.06}
{"gene": "CG30287", "amplicon": "DRSC03875", "droplet/nuclear area B-score, replicate 1": 2.15, "droplet/nuclear area B-score, replicate 2": 1.53}
{"gene": "Jabba", "amplicon": "DRSC06521", "droplet/nuclear area B-score, replicate 1": -0.14, "droplet/nuclear area B-score, replicate 2": -0.777}
{"gene": "CG15745 (retired record)", "amplicon": "DRSC19711", "droplet/nuclear area B-score, replicate 1": -1.54, "droplet/nuclear area B-score, replicate 2": -0.159, "droplet/nuclear area B-score, replicate 3": 0.492}
{"gene": "CG34429", "amplicon": "DRSC10120", "droplet/nuclear area B-score, replicate 1": 1.54, "droplet/nuclear area B-score, replicate 2": 1.36}
{"gene": "CG3339", "amplicon": "DRSC13821", "droplet/nuclear area B-score, replicate 1": 2.43, "droplet/nuclear area B-score, replicate 2": 0.983}
{"gene": "CG3339", "amplicon": "DRSC15479", "droplet/nuclear area B-score, replicate 1": -2.21, "droplet/nuclear area B-score, replicate 2": 1.55}
{"gene": "Ubc6", "amplicon": "DRSC12370", "droplet/nuclear area B-score, replicate 1": -2.94, "droplet/nuclear area B-score, replicate 2": 0.418}
{"gene": "BBS4", "amplicon": "DRSC06352", "droplet/nuclear area B-score, replicate 1": 0.524, "droplet/nuclear area B-score, replicate 2": -0.74}

Quoted from the entries so far (2 entries):
{"gene": "CG8043", "amplicon": "DRSC16368", "droplet/nuclear area B-score, replicate 1": 3.65, "droplet/nuclear area B-score, replicate 2": 4.37}
{"gene": "CG3942", "amplicon": "DRSC15525", "droplet/nuclear area B-score, replicate 1": -1.13, "droplet/nuclear area B-score, replicate 2": -0.0654}
